Source: patent US20220133957A1, “Sclerostin Inhibitors That Promote Bone Morphogenetic Protein Expression” (Emory University, priority 2019, published 2022)
At least one structure is not confirmed: it was looked up by name or label, or the drawing left a doubt.

Test system: AXIN2, Wnt1 and SOST mRNA
Test: BMP-2-induced marker gene expression in Wnt pathway (mRNA levels) in MC3T3 cells
Format: cell-based
Conditions: 10 uM compound, BMP-2 35 ng/ml, MC3T3 cells treated for 48 hrs

C[C@@H]1C[C@H]2[C@@H]3C[C@H](F)C4=CC(=O)C=C[C@]4(C)[C@@]3(F)[C@@H](O)C[C@]2(C)[C@@]1(O)C(=O)SCF [F, fluticasone]
BMP-induced mRNA levels of AXIN2, Wnt1 and SOST compared to BMP-2 alone control: elevation
